# Laboratory results: PubChem BioAssay AID652259 (Drosophila RNAi Screening Center, 2013)
# Aim: 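Genome-wide hunt for genes that control Wingless pathway activity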 (primary screen)
# System: Drosophila clone 8 imaginal disc epithelial cells
# Reagent: long dsRNA against Drosophila genes
# Conditions: pathway stimulated by co-transfected Wingless expression plasmid
# Measured: 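Firefly luciferase from a tcf-site Wingless reporter, measured alongside co-transfected Renilla luciferase that tracks transfection; pathway stimulated by a Wingless plasmid; the firefly-to-Renilla ratio is not deposited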
# Reading the numbers: firefly reporter light: higher = more Wg reporter light, before normalisation; Renilla control light: higher = more transfected or surviving cells
# Call rule: 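a knock-down is a candidate when at least two out of four statistical tests show it departing from its plate mean; one test alone signals a weak candidate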
# Calls: active = candidate regulator (raises or lowers reporter); inactive = not a candidate
# The deposit covers about 22,000 reagents; below is an unselected part of those with a known target gene and a result. In the full data, 233 (1.1%) were called active. 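Light values are raw, unnormalised plate reads; the ratio scores behind the reporter calls were not deposited.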 Entries without a mark were called inactive. Names joined by + are all predicted targets of the reagent. The record does not give: the amount of reagent, the time to read-out, the dose of the treatment.
Target gene,amplicon,"reporter change call, replicate 1","firefly reporter light, replicate 1","firefly reporter light, replicate 2","Renilla control light, replicate 1","Renilla control light, replicate 2"
ex (expanded),DRSC00817,,8672,,3481,
Uggt (UDP-glucose-glycoprotein glucosyltransferase),DRSC11315,,4224,,2027,
CG2157,DRSC19836,,15076,,6953,
Topors (Topoisomerase I-interacting protein),DRSC06531,,11432,,3984,
CG15818,DRSC02505,,14705,,6224,
dmGlut (Dietary and metabolic glutamate transporter),DRSC02835,,9725,,2288,
wls (wntless),DRSC10605,,6032,,1872,
CG10222,DRSC09714,,12336,,2800,
Edg91 (Ecdysone-dependent gene 91),DRSC16657,,13416,,3536,
CG7768,DRSC10914,,3125,,1600,
Exo84 (Exocyst 84),DRSC15965,,15033,,10656,
Sgs3 (Salivary gland secretion 3),DRSC11280,,7784,,4104,
Dh44-R1 (Diuretic hormone 44 receptor 1),DRSC07172,,12468,,2917,
wda (will decrease acetylation),DRSC15579,,25320,,22096,
wda (will decrease acetylation),DRSC22351,,6.58e5,7.20e5,1.31e5,1.80e5
term (terminus),DRSC21730,,4.12e5,4.80e5,2.27e5,1.80e5
CG15408,DRSC00423,,2181,7105,1056,1964
CG11865,DRSC01872,,2066,3609,1046,2247
CG5096,DRSC02813,,2968,5195,946,2316
Gyc89Db (Guanylyl cyclase at 89Db),DRSC15009,,2240,5984,1412,2547
CG32440,DRSC11480,,4198,,1722,
Dgp-1,DRSC07400,,6294,,2246,
Sik2 (Salt-inducible kinase 2),DRSC18522,,16401,,14843,
CG42855,DRSC06161,,6460,,2744,
corn (cornetto),DRSC11021,,5986,,1840,
corn (cornetto),DRSC21943,,5.34e5,5.40e5,1.68e5,1.85e5
Fuca (alpha-L-fucosidase),DRSC10591,,6348,,2280,
CG42496 + Ppcdc,DRSC03886,,22464,,11666,
CG10576,DRSC09745,,3920,,1282,
Sirt4 (Sirtuin 4),DRSC18290,,18611,,7435,
png (pan gu),DRSC18582,,13878,,14785,
CG43084,DRSC09998,,6170,,2892,
CG3746,DRSC04412,,2956,10486,746,3873
CG13247,DRSC11695,,22355,,7494,
rgr (regular),DRSC06487,,18306,,5488,
rgr (regular),DRSC07229,,10348,,3088,
"IleRS-m (Isoleucyl-tRNA synthetase, mitochondrial)",DRSC10506,,7043,,2762,
CG14111,DRSC10114,,8395,,3014,
Arc42 (Activator-recruited cofactor subunit 42),DRSC14340,,18149,,3549,
Arc42 (Activator-recruited cofactor subunit 42),DRSC15627,,25140,,5121,
Dsor1 (Downstream of raf1),DRSC18462,,3725,5815,728,1408
Hrb98DE (Heterogeneous nuclear ribonucleoprotein at 98DE),DRSC16709,,1397,7506,907,2458
rux (roughex),DRSC18829,,2070,5056,688,1844
CG4751,DRSC02776,,6944,,2200,
PGRP-LD + Cralbp + Pmi,DRSC09743,,1927,6240,1954,3188
smash (smallish),DRSC12139,,8192,,2624,
smash (smallish),DRSC12141,,5844,,1337,
smash (smallish),DRSC12239,,15511,,4727,
smash (smallish),DRSC12289,,17621,,5557,
Phlpp (PH domain leucine-rich repeat protein phosphatase),DRSC02065,,3980,10221,1057,3827
Phlpp (PH domain leucine-rich repeat protein phosphatase),DRSC22808,,4.27e5,4.48e5,1.76e5,1.98e5
CG15115,DRSC06537,,4032,,970,
CG7632,DRSC11842,,9868,,4242,
CG5265,DRSC15756,,11348,,3152,
Smg5 (Smg5 nonsense mediated mRNA decay factor),DRSC03124,,6886,,2381,
CG5726,DRSC06946,,19296,,3373,
Frl (Formin-like),DRSC09300,,3220,,1392,
Frl (Formin-like),DRSC10027,,4563,,2006,
Frl (Formin-like),DRSC10716,,5660,,2651,
syd (sunday driver),DRSC10963,,6676,,2528,
CG3198,DRSC18292,,11399,,7772,
sip1 (septin interacting protein 1),DRSC03609,,1111,6147,512,2155
sip1 (septin interacting protein 1),DRSC22648,,4.41e5,4.51e5,1.53e5,64070
CG1677,DRSC18116,,27767,,10780,
CG42299 + CG42300,DRSC19680,,20724,,7370,
CG42299 + CG42300,DRSC19815,,16954,,8588,
CG12851,DRSC04131,,2931,5751,666,2125
Lmx1a (LIM homeobox transcription factor 1 alpha),DRSC09726,,4852,,1824,
Lmx1a (LIM homeobox transcription factor 1 alpha),DRSC10275,Wg reporter activity raised (active),5906,,457,
kdn (knockdown),DRSC18328,,18359,,10203,
LIMK1 (LIM domain kinase 1),DRSC19811,,2336,5660,916,1969
CG1136,DRSC08184,,8221,,3048,
Doc3 (Dorsocross3),DRSC10480,,1427,9877,1020,3305
